PubChem BioAssay AID1259405, NCATS | 2018

Purpose: 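Knock-downs that lift recombinant protein yield in hamster ovary cells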 (primary screen)
Cells: Chinese hamster CHO-K1 ovary cells with stable secreted eGFP expression
Reagent: single siRNA against mouse genes, 0.8 pmol siRNA per well (2 µl of 400 nM stock)
Duration: 3 days
Read-out: 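Per-well intracellular GFP measured by laser scanning cytometry, plus viability from ATP luminescence, each relative to plate median of non-targeting control wells, in %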
Reading the numbers: GFP, % of control: higher = more GFP per well, higher productivity; viability (ATP), % of control: higher = more viable cells (more ATP)
Hit rule: 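a knock-down is called active if GFP reaches 120% or more of non-targeting control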
This is one part, drawn at random, of about 50,000 reagents tested. About 4,000 of them (8%) were called active. 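Mouse siRNA library applied to hamster cells; one well for each siRNA.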 Unmarked entries are inactive. The numbers tell different reagents against one gene apart.

Which result is listed for Hoxa5 #1?
GFP, % of control: 53; viability (ATP), % of control: 68.5

For Hoxa5 #2, what does the deposit list?
GFP, % of control: 56.9; viability (ATP), % of control: 74.6

What is on record for Hoxa5 #3?
GFP, % of control: 76.4; viability (ATP), % of control: 80

With Ttll4 #1, what was measured?
GFP, % of control: 72.2; viability (ATP), % of control: 72

Which result is listed for Ttll4 #2?
GFP, % of control: 74.8; viability (ATP), % of control: 76.1

With Srrt #1, what was measured?
GFP, % of control: 76.6; viability (ATP), % of control: 89.7

For Srrt #2, what does the deposit list?
GFP, % of control: 65.2; viability (ATP), % of control: 80.7

With Srrt #3, what does the deposit list?
GFP, % of control: 88.9; viability (ATP), % of control: 77.9

Which result is listed for Otud7a #1?
GFP, % of control: 0; viability (ATP), % of control: 19.2

How did the screen score Otud7a #2?
GFP, % of control: 79.8; viability (ATP), % of control: 94.2

With Stk31 #1, what was measured?
GFP, % of control: 104; viability (ATP), % of control: 79.4

For Stk31 #2, what does the deposit list?
GFP, % of control: 76; viability (ATP), % of control: 133

How did the screen score G430095P16Rik #1?
GFP, % of control: 73.8; viability (ATP), % of control: 84.9

With G430095P16Rik #2, what was measured?
GFP, % of control: 92.1; viability (ATP), % of control: 81

How did the screen score G430095P16Rik #3?
GFP, % of control: 113; viability (ATP), % of control: 98.3

With Rhou #1, what does the deposit list?
GFP, % of control: 64; viability (ATP), % of control: 38.5

With Rhou #2, what does the deposit list?
GFP, % of control: 28.6; viability (ATP), % of control: 41.9

How did the screen score Rhou #3?
GFP, % of control: 70.3; viability (ATP), % of control: 76.2

Records above whose target name begins with S or s (5):
Srrt #1 | GFP, % of control = 76.6; viability (ATP), % of control = 89.7
Srrt #2 | GFP, % of control = 65.2; viability (ATP), % of control = 80.7
Srrt #3 | GFP, % of control = 88.9; viability (ATP), % of control = 77.9
Stk31 #1 | GFP, % of control = 104; viability (ATP), % of control = 79.4
Stk31 #2 | GFP, % of control = 76; viability (ATP), % of control = 133
